Data source: PubChem BioAssay AID504786 (Drosophila RNAi Screening Center, 2011)

Aim: 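Fly genes required for HIF-dependent transcription when hypoxia is mimicked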 (primary screen)
System: Drosophila S2 cells with a stable HIF luciferase reporter
Knock-down reagent: long dsRNA against Drosophila genes, about 0.2 µg dsRNA per well of a 384-well plate
Duration: three days of knock-down, then 20 h of DFO before reading
Treatment: desferrioxamine (DFO) at 100 µM, an iron chelator that mimics hypoxia, for 20 h
Read-out: 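Firefly luciferase driven by the mouse ldh-a hypoxia-response element, measured after 20 h of 100 µM DFO; z-scores per plate, higher means more signal lost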
Direction: z-score: higher = stronger loss of HIF reporter signal
The deposit covers about 21,000 reagents; shown is an unselected part of those that have a named target and a result. 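Primary screen; positive scores mean lost reporter signal, so the sign may be inverted from the usual convention.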 A plus sign joins genes that one reagent is predicted to hit.

gene	dsRNA	z-score, replicate 1	z-score, replicate 2	z-score, replicate 3	z-score, replicate 4
CG11905	DRSC09863	-0.3	-0.4		
CG17493	DRSC03798	-0.2	0.6		
CG32706 + CG6999	DRSC18412	-0.2	-0.1		
CG14435	DRSC17928	0.4	-0.4		
CG8746	DRSC07257	-0.2	0.2		
alpha4GT2 (alpha1,4-galactosyltransferase 2)	DRSC15905	-0.4	0.2		
Cpr49Ae (Cuticular protein 49Ae)	DRSC07201	-0.3	-0.4		
CG15226 (retired record)	DRSC03829	-0.1	-0.2		
CG15226 (retired record)	DRSC04233	-0.1	0.1		
Su(var)2-HP2	DRSC06204	0	-0.3		
galla-1	DRSC05987	-0.2	-0.5		
Vha26 (Vacuolar H[+]-ATPase 26kD subunit)	DRSC12371	-0.2	0		
Psf3 (Partner of Sld Five 3)	DRSC18216	-0.3	-0.5		
CG30428	DRSC04041	-0.2	-0.2		
CG11899	DRSC16656	-0.1	-0.3		
CG15711	DRSC06582	-0.2	0.7		
CG11878	DRSC14422	0	0.2		
Cdlc2 (Cytoplasmic dynein light chain 2)	DRSC00743	0.6	0.7		
Cbl (Cbl proto-oncogene)	DRSC10764	-0.2	1.1		
Cbl (Cbl proto-oncogene)	DRSC11111	0.1	0.2		
CG14326	DRSC14805	0	0.3		
Spn28Dc (Serpin 28Dc)	DRSC03029	-0.3	-0.5		
slim (scruin like at the midline)	DRSC06921	-0.3	-0.3		
CG15128	DRSC06550	-0.2	0.8		
Pxd (Peroxidase)	DRSC16805	-0.4	1		
HPS4 (Hermansky-Pudlak Syndrome 4)	DRSC06906	-0.1	-0.4		
Mi-2	DRSC11222	-0.5	-1.6		
CG13912	DRSC08381	-0.2	-0.3		
boca	DRSC06408	-0.4	-0.9		
cib (ciboulot)	DRSC18660	-0.3	-0.5	-0.6	-0.1
CG5026	DRSC10470	-0.2	-0.4		
zye	DRSC11784	-0.3	-0.4		
Cpr49Aa (Cuticular protein 49Aa)	DRSC07197	-0.3	0		
LysX (Lysozyme X)	DRSC08678	-0.3	-0.5		
Syx7 (Syntaxin 7)	DRSC11763	-0.4	-0.4		
Osi23 (Osiris 23)	DRSC15074	-0.4	0.1		
DNaseII (Deoxyribonuclease II)	DRSC16310	-0.1	-0.2		
mRpL46 (mitochondrial ribosomal protein L46)	DRSC08391	0.5	0.9		
Uros1 (Uroporphyrinogen III synthase 1)	DRSC18191	-0.3	-0.6		
CG32816	DRSC17337	-0.1	-0.5		
Nxt1 (NTF2-related export protein 1)	DRSC04630	1	2.4		
CG8517	DRSC07205	-0.1	-0.3		
RecQ5 (RecQ5 helicase)	DRSC11266	-0.3	-0.3		
CG15484	DRSC02494	-0.2	-0.4	-0.6	-0.2
w-cup (world cup)	DRSC03048	0.1	0		
CG15715	DRSC10216	0	0.2		
CG1344	DRSC04837	-0.2	-0.1		
pain (painless)	DRSC04273	-0.2	1.5		
CG14456	DRSC11713	-0.3	0.2		
CG13494	DRSC04139	-0.2	-0.3		
Nepl17 (Neprilysin-like 17)	DRSC14880	-0.3	-0.9		
PIG-K (Phosphatidylinositol glycan anchor biosynthesis class K)	DRSC18496	-0.3	-0.4		
CG4598	DRSC02763	-0.3	-0.1		
DCP1 (Decapping protein 1)	DRSC04091	-0.3	-0.8		
acs (arcus)	DRSC08185	-0.3	-0.1		
Pcl (Polycomblike)	DRSC07503	1.1	1.5		
Cpr (Cytochrome P450 reductase)	DRSC03293	-0.3	-0.4		
AANATL2 (Arylalkylamine N-acetyltransferase-like 2)	DRSC03227	-0.2	-0.4		
CG14244	DRSC14739	-0.6	1.4		
Qsox4 (Quiescin sulfhydryl oxidase 4)	DRSC14224	-0.2	-0.3		
Smg6	DRSC16029	-0.2	-0.1		
ara (araucan)	DRSC11322	3	1.2		
CNT1 (Concentrative nucleoside transporter 1)	DRSC06082	-0.2	-0.3		
Caf1-180 (Chromatin assembly factor 1, p180 subunit)	DRSC17807	-0.4	-0.4		
CG31827 + CG18478	DRSC01958	-0.3	-0.3		
Capr (Caprin)	DRSC10346	-0.4	-1		
CG14079	DRSC10083	-0.3	-0.1		
alien	DRSC03482	2.4	2.1		
GluRIIB (Glutamate receptor IIB)	DRSC03335	0	-0.2		
Pebp1 (Phosphatidylethanolamine-binding protein 1)	DRSC15354	0.2	0		
Rtca (RNA 3'-terminal phosphate cyclase)	DRSC18517	-0.2	1.2		
ND-42 (NADH dehydrogenase (ubiquinone) 42 kDa subunit)	DRSC16754	-0.1	-0.2		
CG17121	DRSC15176	-0.4	-0.1		
tld (tolloid)	DRSC17084	-0.3	-0.5		
Slob (retired record)	DRSC03436	-0.3	-0.2		
P58IPK	DRSC16404	-0.3	0.3		
Or85e (retired record)	DRSC16768	-0.2	-0.3		
CG10140	DRSC09704	-0.2	-0.9		
CG17122	DRSC10245	-0.3	-0.2		
Uba3 (Ubiquitin-like activating enzyme 3)	DRSC06377	-0.5	-1.1		
p38a (p38a MAP kinase)	DRSC16743	-0.4	0		
Miro (Mitochondrial Rho)	DRSC15795	-0.1	-0.4		
CG30222	DRSC04125	0.1	0.3		
CG30222	DRSC04262	-0.2	-0.7		
ppk16 (pickpocket 16)	DRSC02736	-0.4	-0.1		
vg (vestigial)	DRSC07715	-0.2	0	0	-0.4
Psa (Puromycin sensitive aminopeptidase)	DRSC08152	-0.3	-0.6		
Ilp2 (Insulin-like peptide 2)	DRSC10968	0	-0.1		
Roc2 (Regulator of cullins 2)	DRSC07313	-0.2	-0.5		
smal (smoke alarm)	DRSC02318	-0.3	-0.4	-0.4	0
smal (smoke alarm)	DRSC02319	-0.4	-0.5		
smal (smoke alarm)	DRSC02320	-0.4	0		
smal (smoke alarm)	DRSC02504	-0.3	-0.3		
CG6709 + Hez	DRSC10165	-0.2	-0.3		
CG6709 + Hez	DRSC10698	-0.3	-0.5		
CG33460	DRSC05570	-0.2	-0.2		
sdk (sidekick)	DRSC18831	-0.2	-0.4		
CG9547	DRSC03260	-0.2	0		
jef (jet fuel)	DRSC06198	-0.3	0.1		
CG14695	DRSC14918	-0.1	-0.4		
CG42542	DRSC15549	0.2	0.2		
CG32591	DRSC19063	-0.2	-0.3		
Pat1 (Protein interacting with APP tail-1)	DRSC17750	-0.3	0.1		
vilya	DRSC18588	-0.2	-0.9		
hid (head involution defective)	DRSC11316	-0.2	0		
CG32107	DRSC09221	0	-0.3		

9 entries from above, set out differently.
{"gene": "CG9547", "dsRNA": "DRSC03260", "z-score, replicate 1": -0.2, "z-score, replicate 2": 0}
{"gene": "jef (jet fuel)", "dsRNA": "DRSC06198", "z-score, replicate 1": -0.3, "z-score, replicate 2": 0.1}
{"gene": "CG14695", "dsRNA": "DRSC14918", "z-score, replicate 1": -0.1, "z-score, replicate 2": -0.4}
{"gene": "CG42542", "dsRNA": "DRSC15549", "z-score, replicate 1": 0.2, "z-score, replicate 2": 0.2}
{"gene": "CG32591", "dsRNA": "DRSC19063", "z-score, replicate 1": -0.2, "z-score, replicate 2": -0.3}
{"gene": "Pat1 (Protein interacting with APP tail-1)", "dsRNA": "DRSC17750", "z-score, replicate 1": -0.3, "z-score, replicate 2": 0.1}
{"gene": "vilya", "dsRNA": "DRSC18588", "z-score, replicate 1": -0.2, "z-score, replicate 2": -0.9}
{"gene": "hid (head involution defective)", "dsRNA": "DRSC11316", "z-score, replicate 1": -0.2, "z-score, replicate 2": 0}
{"gene": "CG32107", "dsRNA": "DRSC09221", "z-score, replicate 1": 0, "z-score, replicate 2": -0.3}
